Test results: paper doi:10.1101/2020.01.27.921825
Numbering of substitutions follows the chain as printed. Where two headings read alike, the source gives them in different places. Results are given in words; binding and its absence hold for the method and conditions named. In cells and extracts the contact can be indirect. Some results given as binding are weak or reduced against the parent protein; the word gives no strength. Tags and fused reporters may be left off the sequences shown.

Protein sequences, listed by entry. Tags and fused reporters are not part of them. Lines headed by an entry give the natural chain unless they say otherwise; changes in a name come on top. Residues count along the entry.
UniProt P20849, 24-921: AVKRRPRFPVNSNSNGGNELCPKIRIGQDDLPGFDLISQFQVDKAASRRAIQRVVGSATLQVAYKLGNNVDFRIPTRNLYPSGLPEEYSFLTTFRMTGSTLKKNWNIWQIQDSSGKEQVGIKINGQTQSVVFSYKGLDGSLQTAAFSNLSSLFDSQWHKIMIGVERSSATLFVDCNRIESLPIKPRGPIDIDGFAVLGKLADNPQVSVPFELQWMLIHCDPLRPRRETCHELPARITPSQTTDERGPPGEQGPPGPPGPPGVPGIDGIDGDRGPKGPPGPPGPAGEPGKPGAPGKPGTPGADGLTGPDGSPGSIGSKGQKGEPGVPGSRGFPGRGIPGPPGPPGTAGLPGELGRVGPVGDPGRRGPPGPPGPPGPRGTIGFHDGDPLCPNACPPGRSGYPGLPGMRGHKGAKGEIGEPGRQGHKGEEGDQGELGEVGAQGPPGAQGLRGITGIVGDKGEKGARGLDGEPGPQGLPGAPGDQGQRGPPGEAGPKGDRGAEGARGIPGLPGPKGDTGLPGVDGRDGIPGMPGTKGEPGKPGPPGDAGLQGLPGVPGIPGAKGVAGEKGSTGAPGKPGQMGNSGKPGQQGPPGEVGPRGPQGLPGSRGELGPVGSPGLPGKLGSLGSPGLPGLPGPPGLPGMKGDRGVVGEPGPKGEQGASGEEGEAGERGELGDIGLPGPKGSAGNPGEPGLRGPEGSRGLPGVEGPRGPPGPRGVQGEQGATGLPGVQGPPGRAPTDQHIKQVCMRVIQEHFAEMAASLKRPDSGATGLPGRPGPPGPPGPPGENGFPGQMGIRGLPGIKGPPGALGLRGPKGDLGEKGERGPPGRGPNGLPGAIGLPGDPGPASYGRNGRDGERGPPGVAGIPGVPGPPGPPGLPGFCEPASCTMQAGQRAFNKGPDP
UniProt P49747, 21-757: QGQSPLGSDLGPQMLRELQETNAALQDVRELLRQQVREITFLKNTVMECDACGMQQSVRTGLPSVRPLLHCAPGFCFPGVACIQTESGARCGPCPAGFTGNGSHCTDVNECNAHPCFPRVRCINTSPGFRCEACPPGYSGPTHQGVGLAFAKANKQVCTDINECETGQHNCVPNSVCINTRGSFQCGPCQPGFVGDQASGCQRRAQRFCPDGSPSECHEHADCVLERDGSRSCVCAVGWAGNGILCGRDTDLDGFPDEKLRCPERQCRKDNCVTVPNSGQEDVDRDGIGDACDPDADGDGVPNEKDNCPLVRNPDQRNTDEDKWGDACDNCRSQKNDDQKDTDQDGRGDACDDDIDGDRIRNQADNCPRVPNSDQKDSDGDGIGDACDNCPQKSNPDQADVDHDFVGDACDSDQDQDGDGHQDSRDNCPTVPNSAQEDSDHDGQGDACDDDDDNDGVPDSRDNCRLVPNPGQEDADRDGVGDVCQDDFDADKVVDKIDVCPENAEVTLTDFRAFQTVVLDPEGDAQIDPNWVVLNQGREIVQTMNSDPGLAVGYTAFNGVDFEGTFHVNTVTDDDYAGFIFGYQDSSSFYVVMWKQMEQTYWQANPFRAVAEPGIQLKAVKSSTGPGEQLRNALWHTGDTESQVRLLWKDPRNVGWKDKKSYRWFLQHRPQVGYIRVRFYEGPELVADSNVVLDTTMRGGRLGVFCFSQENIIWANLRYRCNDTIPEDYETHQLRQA

How the values were obtained:
Assay in all cases: co-IP
[1] = target: T1, MYC-tagged mutant SMOC2 (p.Leu359Arg) (human) (UniProt Q9H3U7)
T1 sequence: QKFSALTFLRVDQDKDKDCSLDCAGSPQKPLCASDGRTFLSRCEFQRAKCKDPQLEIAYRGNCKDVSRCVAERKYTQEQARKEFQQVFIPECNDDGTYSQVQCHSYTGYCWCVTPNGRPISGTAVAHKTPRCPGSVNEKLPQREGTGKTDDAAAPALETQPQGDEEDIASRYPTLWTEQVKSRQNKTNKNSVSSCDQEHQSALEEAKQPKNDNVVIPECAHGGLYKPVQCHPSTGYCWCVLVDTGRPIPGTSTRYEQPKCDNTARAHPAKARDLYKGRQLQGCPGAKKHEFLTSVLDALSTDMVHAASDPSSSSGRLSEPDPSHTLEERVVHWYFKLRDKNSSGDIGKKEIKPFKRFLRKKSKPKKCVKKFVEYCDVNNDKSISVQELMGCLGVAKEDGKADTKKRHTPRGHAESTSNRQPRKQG

[2] = target: T2, MYC-tagged wild-type SMOC2 (SPARC-related modular calcium binding 2) (human) (UniProt Q9H3U7)
T2 sequence: T1 sequence with R338L

[3] = target: T1, MYC-tagged mutant SMOC2 (p.Leu359Arg) (human); remark: listed apart in the source
[4] = target: T2, MYC-tagged wild-type SMOC2 (SPARC-related modular calcium binding 2) (human); remark: listed apart in the source

In the case of “HA-tagged COL9A1 (collagen type IX alpha-1) (from UniProt P20849 24-921)”, the binding [1] is reported as “no binding” and the binding [2] is reported as “binds”.

For “HA-tagged COMP (collagen oligomeric matrix protein) (from UniProt P49747 21-757)”, the binding [1] was “binds” and the binding [2] was “binds”.

B1: HA-tagged MATN3 (matrilin-3) (protein, UniProt O15232 29-486)
chain: DPVARPGFRRLETRGPGGSPGRRPSPAAPDGAPASGTSEPGRARGAGVCKSRPLDLVFIIDSSRSVRPLEFTKVKTFVSRIIDTLDIGPADTRVAVVNYASTVKIEFQLQAYTDKQSLKQAVGRITPLSTGTMSGLAIQTAMDEAFTVEAGAREPSSNIPKVAIIVTDGRPQDQVNEVAARAQASGIELYAVGVDRADMASLKMMASEPLEEHVFYVETYGVIEKLSSRFQETFCALDPCVLGTHQCQHVCISDGEGKHHCECSQGYTLNADKKTCSALDRCALNTHGCEHICVNDRSGSYHCECYEGYTLNEDRKTCSAQDKCALGTHGCQHICVNDRTGSHHCECYEGYTLNADKKTCSVRDKCALGSHGCQHICVSDGAASYHCDCYPGYTLNEDKKTCSATEEARRLVSTEDACGCEATLAFQDKVSSYLQRLNTKLDDILEKLKINEYGQIHR
B1 was tested, and the binding [3] was “binds” and the binding [4] was “binds”.
